The experiment deals with L1210 leukemia ip in BDF1 mice, survival T/C. The experiment can be described thus: NCI In Vivo Anticancer Drug Screen. Data for tumor model L1210 Leukemia (intraperitoneal) in B6D2F1 (BDF1) mice. The conditions noted are these: T/C endpoint: mean survival time, higher T/C = longer survival.
The mark [1] stands for this setting: dose: 400.0 mg/kg/injection, schedule: Q01DX001 (ip), vehicle: saline.
Where [2] appears, read: dose: 400.0 mg/kg/injection, schedule: Q04DX002 (ip), vehicle: Klucel (hydroxypropylcellulose) (HPC).
Where [3] appears, read: dose: 600.0 mg/kg/injection, schedule: Q01DX001 (ip), vehicle: carboxymethylcellulose (CMC).
The mark [4] stands for this setting: dose: 150.0 mg/kg/injection, schedule: Q04DX003 (ip), vehicle: Klucel (hydroxypropylcellulose) (HPC).
Setting [5] is: dose: 100.0 mg/kg/injection, schedule: Q01DX009 (ip), vehicle: Klucel (hydroxypropylcellulose) (HPC).
The mark [6] stands for this setting: dose: 200.0 mg/kg/injection, schedule: Q01DX009 (ip), vehicle: saline.
[7] abbreviates: dose: 400.0 mg/kg/injection, schedule: Q04DX003 (ip), vehicle: saline.

The list shows only some results of the screen, not a fair sample: it is rich in T/C values a quarter to a half above the control, in often repeated tests (any T/C) and in doses without a T/C. Further doses and runs are listed elsewhere. T/C is the treated group as % of the vehicle group. Some entries give survivors of the animals treated and no T/C: the source holds a T/C of zero for them, seemingly a mark for toxic or unscored doses. Some survivor counts are full or nearly so, which does not show that the dose was tolerated: the source hardly ever lists a survival T/C far under the control, and the zero likely stands for such cases as well. Counts of survivors are from the toxicity check (mostly the fifth day) where no day follows; animals may have died later. Schedule codes are those of the source, taken here to give the interval after Q, in days (D) or hours (H), and the number of doses after X. Some schedules carry Z or #; the key to these is not given. Where survival is the endpoint, the PubChem record calls one and a half times the control and up active, and a quarter to a half above the control has no call in these data; cut-offs in other NCI protocols can differ. Some T/C values are followed by the survivors on the day toxicity was checked, most often the fifth; where none is given, no animal had died by that day. Some entries hold several experiments; the results are listed from low to high.

`Nc1nc(=S)c2[nH]c(=S)[nH]c2[nH]1`: the T/C (dose: 25.0 mg/kg/injection, schedule: Q01DX009 (ip), vehicle: saline) is 128 % of control; the T/C (dose: 35.0 mg/kg/injection, schedule: Q01DX Z (ip), vehicle: saline) was 129 % of control; the T/C (dose: 50.0 mg/kg/injection, schedule: Q01DX009 (ip), vehicle: saline) was 135 % of control; the T/C (dose: 50.0 mg/kg/injection, schedule: Q01DX Z (ip), vehicle: carboxymethylcellulose (CMC)) was 132 % of control [4 of 6 alive]; the T/C (dose: 50.0 mg/kg/injection, schedule: Q01DX Z (ip), vehicle: saline) is 125 % of control; the T/C (dose: 100.0 mg/kg/injection, schedule: Q01DX009 (ip), vehicle: saline) was 140 % of control. In addition, the T/C by setting is: (dose: 100.0 mg/kg/injection, schedule: Q01DX Z (ip), vehicle: carboxymethylcellulose (CMC)) 142 % of control [5 of 6 alive]; (dose: 200.0 mg/kg/injection, schedule: Q01DX Z (ip), vehicle: carboxymethylcellulose (CMC)) 132 % of control [4 of 6 alive]; (dose: 265.0 mg/kg/injection, schedule: Q01DX001 (ip), vehicle: saline) 138 % of control; under setting [1], 128 % of control; (dose: 600.0 mg/kg/injection, schedule: Q01DX001 (ip), vehicle: saline) 135 % of control.

With `CCC1CCCCC1(O)CC` (centres undefined), the survivor count (dose: 400.0 mg/kg/injection, schedule: Q01DX009 (ip), vehicle: saline) is reported as 1 of 6.

As for `CNC(=O)Nc1ccccc1[N+](=O)[O-]`, the survivor count under setting [2] is recorded as 0 of 3.

Regarding `COc1cc2c(c(OC)c1OC)-c1cc(I)c(O)cc1[C@@H](NC(C)=O)CC2`, the T/C (dose: 28.0 mg/kg/injection, schedule: Q01DX Z (ip), vehicle: carboxymethylcellulose (CMC)) was 125 % of control; the T/C (dose: 37.5 mg/kg/injection, schedule: Q01DX009 (ip), vehicle: saline with Tween-80) is 130 % of control; the T/C (dose: 45.0 mg/kg/injection, schedule: Q01DX Z (ip), vehicle: carboxymethylcellulose (CMC)) is 132 % of control; the T/C (dose: 65.0 mg/kg/injection, schedule: Q01DX Z (ip), vehicle: carboxymethylcellulose (CMC)) was 143 % of control; the T/C (dose: 100.0 mg/kg/injection, schedule: Q04DX003 (ip), vehicle: Klucel (hydroxypropylcellulose) (HPC)) was 128 % of control [5 of 6 alive]; the T/C (dose: 180.0 mg/kg/injection, schedule: Q01DX001 (ip), vehicle: carboxymethylcellulose (CMC)) is 127 and 145 % of control. The T/C (dose: 200.0 mg/kg/injection, schedule: Q01DX001 (ip), vehicle: carboxymethylcellulose (CMC)) was 129 % of control; the T/C (dose: 200.0 mg/kg/injection, schedule: Q01DX009 (ip), vehicle: saline sonified) was 132 % of control; the T/C (dose: 265.0 mg/kg/injection, schedule: Q01DX001 (ip), vehicle: carboxymethylcellulose (CMC)) was 125 and 134 % of control [4 of 6 alive]; the T/C under setting [3] was 144 % of control. For the same compound, the survivor count reads like this: (dose: 60.0 mg/kg/injection, schedule: Q01DX015 (ip), vehicle: carboxymethylcellulose (CMC)) 2 of 6; (dose: 90.0 mg/kg/injection, schedule: Q01DX015 (ip), vehicle: carboxymethylcellulose (CMC)) 0 of 6; (dose: 100.0 mg/kg/injection, schedule: Q01DX Z (ip), vehicle: saline) 5 of 6; (dose: 135.0 mg/kg/injection, schedule: Q01DX015 (ip), vehicle: carboxymethylcellulose (CMC)) 0 of 6; (dose: 400.0 mg/kg/injection, schedule: Q01DX001 (ip), vehicle: carboxymethylcellulose (CMC)) 0 of 6; under setting [3], 0 of 6.

`CCOC(=O)NC(=S)[S][Sb]([S]C(=S)NC(=O)OCC)[S]C(=S)Nc1ccc(S(=O)(=O)Nc2ccc(N=Nc3ccccc3)cc2)cc1`: the survivor count (dose: 200.0 mg/kg/injection, schedule: Q01DX001 (ip), vehicle: steroid suspending solution) was 1 of 6.

With `CCN(CC)CCNCc1ccc(Cl)cc1`, the survivor count is, setting by setting: under setting [4], 3 of 6; (dose: 300.0 mg/kg/injection, schedule: Q04DX003 (ip), vehicle: Klucel (hydroxypropylcellulose) (HPC)) 0 of 6.

For `CCCCCCCCCCCCCCCCOc1ccc(Cl)cc1`, the survivor count (dose: 200.0 mg/kg/injection, schedule: Q01DX001 (ip), vehicle: Klucel (hydroxypropylcellulose) (HPC)) is listed as 6 of 6.

For `CCCCCC(C[N+](C)(C)C)C(O)/C=C\c1ccccc1` (centres undefined), the survivor count (dose: 20.0 mg/kg/injection, schedule: Q04DX003 (ip), vehicle: saline) is given as 0 of 6.

Consider `CCN(CC)c1ccc(C2NC(=O)c3ccccc3N2)cc1` (centres undefined), for which the T/C under setting [5] is 129 % of control.

`COC(=O)C1(C)COP(=O)(O)OC1` (centres undefined): the survivor count under setting [1] is 1 of 4.

For `CCCCCCCCOc1ccccn1`, the survivor count (dose: 400.0 mg/kg/injection, schedule: Q01DX009 (ip), vehicle: saline with Tween-80) is given as 6 of 6.

As to `CSC(N)=S`, under setting [6], the survivor count is on record as 1 of 6.

With `CC1(c2ccc(C(O)c3ccccc3)s2)OCCO1` (centres undefined), where the note is “dose: 150.0 mg/kg/injection, schedule: Q01DX001 (ip), vehicle: carboxymethylcellulose (CMC)”, the T/C was 125 % of control. Also, the survivor count under setting [4] is 4 of 6 and the survivor count (dose: 300.0 mg/kg/injection, schedule: Q01DX001 (ip), vehicle: carboxymethylcellulose (CMC)) was 1 of 6.

As to `NC(N)=N/N=C/c1ccc(C(=O)O)cc1`, the survivor count (dose: 480.0 mg/kg/injection, schedule: Q01DX Z (ip), vehicle: saline) is 0 of 6.

In the case of `O=C(O)c1ccccc1/C=C1/Nc2ccccc2C1=O`, the survivor count runs as follows: (dose: 40.0 mg/kg/injection, schedule: Q01DX001 (ip), vehicle: acetone) 1 of 6; (dose: 75.0 mg/kg/injection, schedule: Q01DX001 (ip), vehicle: acetone) 0 of 6; (dose: 150.0 mg/kg/injection, schedule: Q01DX001 (ip), vehicle: acetone) 0 of 6; (dose: 300.0 mg/kg/injection, schedule: Q01DX001 (ip), vehicle: acetone) 0 of 6.

As for `CC(C)CC(C)OP(=S)(S)OC(C)CC(C)C` (centres undefined), the survivor count was 2 of 3 (dose: 100.0 mg/kg/injection, schedule: Q04DX002 (ip), vehicle: saline); 0 of 3 (dose: 200.0 mg/kg/injection, schedule: Q04DX002 (ip), vehicle: saline); 0 of 3 (dose: 400.0 mg/kg/injection, schedule: Q04DX002 (ip), vehicle: saline).

Regarding `CCC(C)c1nc2c(c(=O)n(C)c(=O)n2C)n1C` (centres undefined), the survivor count (dose: 100.0 mg/kg/injection, schedule: Q01DX001 (ip), vehicle: saline) is 4 of 4.

`CNCCN(C)CCNC`: the survivor count is 0 of 6 under setting [6] and 0 of 6 under setting [7].

For the compound `C/C(=N/N=C(N)N)c1cccc(NC(=O)Nc2cccc(/C(C)=N\N=C(N)N)c2)c1`, the T/C (dose: 100.0 mg/kg/injection, schedule: Q04DX003 (ip), vehicle: saline) is 131 % of control. In addition, the survivor count runs as follows: (dose: 200.0 mg/kg/injection, schedule: Q04DX003 (ip), vehicle: saline) 3 of 6; under setting [7], 0 of 6.

In the case of `O=S1(=O)CC2(C1)OCCO2`, the survivor count under setting [2] is listed as 0 of 3.

As to `CN(N=O)c1ccc(CC2CCc3ccccc32)cc1` (centres undefined), the survivor count under setting [5] is on record as 6 of 6 and the survivor count (dose: 400.0 mg/kg/injection, schedule: Q01DX009 (ip), vehicle: Klucel (hydroxypropylcellulose) (HPC)) is 6 of 6. Under “dose: 200.0 mg/kg/injection, schedule: Q01DX009 (ip), vehicle: Klucel (hydroxypropylcellulose) (HPC)”, the T/C was 138 % of control.

Values taken from PubChem BioAssay AID248 (DTP/NCI, 2004).
